Data as given in PubChem BioAssay AID1224826 (NIAID, 2016)

- Test: 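Knock-downs that raise or lower Tnf reporter signal after endotoxin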 (primary screen)
- Cell system: RAW264.7 G9 macrophages from mouse bearing reporters for p65 (GFP) and the Tnf promoter (mCherry)
- Reagent: siRNA pool against mouse genes, 100 nM
- Timing: 16 h of LPS stimulation, after 2 days of siRNA transfection
- Challenge: bacterial lipopolysaccharide (Salmonella minnesota R595), 10 ng/ml
- Detection: 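Imaged Tnf reporter mCherry in nuclei, minus background, normalised per plate to the median and expressed as robust z-scores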
- Scale: Tnf reporter robust z-score: higher = stronger Tnf promoter reporter signal after LPS
- Active means: 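Called active when robust z-score is at most -1.3, matching the median of the Tlr4 knock-down control, or over 3; control wells and wells with under 50 cells never active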
- Meaning of the calls: active = Tnf reporter clearly lowered or raised; inactive = no clear change in Tnf reporter
In all, the deposit lists about 17,000 reagents; shown is a random part of them. Of all reagents, about 1,110 (6.6%) are marked active. 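Active means lowered or raised reporter signal; replicate intensities are raw and not normalised per plate.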 Some reagents were tested in more than one well and are listed for each. Further read-outs or replicates are left out here.

| gene | Tnf reporter robust z-score | fewer than 50 cells in well | call |
| --- | --- | --- | --- |
| Ca9 (GeneID 230099) | -1.45 | enough cells in well | active |
| Ostn (GeneID 239790) | 1.16 | enough cells in well | inactive |
| Ctsc (GeneID 13032) | 1.15 | enough cells in well | inactive |
| Sack1f (GeneID 213956) | 0.51 | enough cells in well | inactive |
| Slc11a2 (GeneID 18174) | 1.57 | enough cells in well | inactive |
| 4632404H12Rik (GeneID 74034) | 2.35 | enough cells in well | inactive |
| Camk4 (GeneID 12326) | -0.86 | enough cells in well | inactive |
| Camk4 (GeneID 12326) | -0.07 | enough cells in well | inactive |
| Tas2r113 (GeneID 387345) | – | fewer than 50 cells per well; well left out of calls | inactive |
| Or5t18 (GeneID 257913) | 0.51 | enough cells in well | inactive |
| Or1j4 (GeneID 258620) | -0.58 | enough cells in well | inactive |
| Gpx7 (GeneID 67305) | -0.07 | enough cells in well | inactive |
| Foxo1 (GeneID 56458) | -0.76 | enough cells in well | inactive |
| Tspan4 (GeneID 64540) | 0.09 | enough cells in well | inactive |
| Zfp341 (GeneID 228807) | -1.58 | enough cells in well | active |
| Dppa3 (GeneID 73708) | – | fewer than 50 cells per well; well left out of calls | inactive |
| Hsd17b10 (GeneID 15108) | 2.2 | enough cells in well | inactive |
| Hapln1 (GeneID 12950) | -0.64 | enough cells in well | inactive |
| Bag5 (GeneID 70369) | -0.09 | enough cells in well | inactive |
| Sprr3 (GeneID 20766) | 1.26 | enough cells in well | inactive |
| Cabp2 (GeneID 29866) | -0.82 | enough cells in well | inactive |
| Rnf122 (GeneID 68867) | 1.12 | enough cells in well | inactive |
| Ttc39c (GeneID 72747) | – | fewer than 50 cells per well; well left out of calls | inactive |
| Tnfrsf25 (GeneID 85030) | -1.25 | enough cells in well | inactive |

3 entries from above, reduced to “fewer than 50 cells in well”.
Sack1f (GeneID 213956): enough cells in well
Slc11a2 (GeneID 18174): enough cells in well
4632404H12Rik (GeneID 74034): enough cells in well
